From the supplement of paper PMC12889115
This is one part of the list. Values are raw readings; no control value is given beside them.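 In the initial screen, polymyxin B was used at a concentration that permeabilizes Salmonella's outer membrane but not its inner membrane. Maximum growth was set by DMSO wells with or without polymyxin B. Since plates varied, data were ranked per plate, and compounds giving the lowest OD600 advanced as hits.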

Tested on: Salmonella enterica serovar Typhimurium SL1344
Experiment: bacterial growth OD600 after 18 h with compound and polymyxin B; higher = more bacterial growth (less inhibition)
Conditions: 50 µM, Mueller-Hinton broth

O=C(CCc1ccsc1)NC1CCCc2nc(-c3ccccc3)ncc21 (stereo not given)
bacterial growth OD600 (polymyxin B 1 µg/mL): 0.915

CSc1ccccc1OCc1cc(C(=O)NC(C)c2cnn(C)c2)no1 (stereo not given)
bacterial growth OD600 (polymyxin B 1 µg/mL): 0.919

CCn1cc(C(=O)NCc2cccnc2-n2cnc3ccccc32)cn1
bacterial growth OD600 (polymyxin B 1 µg/mL): 1.07

Cc1noc(C)c1CCCNC(=O)c1ccc(N(C)C)nc1
bacterial growth OD600 (polymyxin B 1 µg/mL): 1.02

COC1CCN(C(=O)Cc2c3c(n(Cc4ccccc4)c2C)CCCC3=O)CC1
bacterial growth OD600 (polymyxin B 1 µg/mL): 1.12

COCCC(=O)NC1CCCc2c1cnn2-c1ccc(C(C)(C)C)cc1 (stereo not given)
bacterial growth OD600 (polymyxin B 1 µg/mL): 1.13

CC(=O)N1CCC(C(=O)N2CCCC(CCc3ccccc3C)C2)CC1 (stereo not given)
bacterial growth OD600 (polymyxin B 0.75 µg/mL): 0.6

CN(Cc1ccccc1)C1CCCN(C(=O)CCc2ccc(F)cc2)C1 (stereo not given)
bacterial growth OD600 (polymyxin B 1 µg/mL): 0.738

CC(Cc1ccsc1)NC(=O)CCC1(Cc2ccc(Cl)cc2)CCC(=O)N1 (stereo not given)
bacterial growth OD600 (polymyxin B 0.75 µg/mL): 0.797

Cn1ccnc1CNc1ccc(-c2nc(Cc3ccc(F)cc3)no2)cn1
bacterial growth OD600 (polymyxin B 0.75 µg/mL): 0.38

O=S(=O)(Nc1cccc(N2CCC(NCCc3cccs3)CC2)c1)c1ccc(F)cc1
bacterial growth OD600 (polymyxin B 0.75 µg/mL): 0.858

COCCn1cnc2cc(NC(=O)C3CCCCC3)cc(C(=O)N3CCN(C(C)=O)CC3)c21
bacterial growth OD600 (polymyxin B 0.75 µg/mL): 0.865

Cc1nn(C)cc1CN(C)CC1(O)CCCN(Cc2cccc(F)c2F)C1=O (stereo not given)
bacterial growth OD600 (polymyxin B 1 µg/mL): 0.945

C=Cc1ccc(C(=O)N2CCC(c3nc(-c4ccncc4)ncc3-c3cccc(OC)c3)CC2)cc1
bacterial growth OD600 (polymyxin B 0.75 µg/mL): 0.012

Cc1ccc(CN2CCN(Cc3ccccc3F)CC2CCO)o1 (stereo not given)
bacterial growth OD600 (polymyxin B 1 µg/mL): 0.916

CCc1nc2cc(F)ccc2n1C1CCN(C(=O)Cc2c(C)nn(-c3ccccc3)c2C)CC1
bacterial growth OD600 (polymyxin B 0.75 µg/mL): 0.818

COc1ccc(CN(CC2CCN(C3CCCC3)CC2)CC2CCCO2)c(OC)c1 (stereo not given)
bacterial growth OD600 (polymyxin B 1 µg/mL): 0.868

CCC1C(=O)NCCN1Cc1ccc2c(c1)CN(Cc1ccc(C(=O)OC)cc1)CCO2 (stereo not given)
bacterial growth OD600 (polymyxin B 0.75 µg/mL): 0.94

Cc1ccccc1N1CCN(c2ncccc2CNC(=O)c2cscn2)CC1
bacterial growth OD600 (polymyxin B 1 µg/mL): 0.387

COCCN1CCN(C(=O)c2cc(Cn3nc(C)cc3C)[nH]n2)CC1
bacterial growth OD600 (polymyxin B 1 µg/mL): 1.05
